Reference: article PMC3454373

Target: EhXRN2 exoribonuclease (Entamoeba histolytica (endogenous in HM1-IMSS trophozoites)) (UniProt C4MB40)
Assay: co-IP; anti-EhCAF1 or anti-EhXRN2 antibodies (1:100) with protein G beads; cytoplasmic proteins (50 ug) of E. histolytica trophozoites in HNTG buffer (20 mM HEPES pH 7.5, 150 mM NaCl, 0.1% Triton, 10% glycerol), 4 C; Western blot

binding: binds
Substance: actin protein (from UniProt P11426 1-376)

Results are given in words; binding and its absence hold for the method and conditions named. In cells and extracts the contact can be indirect. A result given as binding can be weak or reduced; the word gives no strength.
